Laboratory results as given in US7557088B2, “Methods and compositions for treating conditions” (NeoPro Labs, LLC, priority 2006, dated 2009).
At least one peptide structure holds a part that was inferred or is arguable (an end, a ring closure or a residue). Residues, ends and D or L forms follow the SMILES beside them.

System: Arabidopsis thaliana plants
Assay: flowering of Arabidopsis thaliana plants
Format: in vivo
Details: 10 μm in 0.01% Silwet L-77

## CC(C)C[C@H](NC(=O)[C@@H](N)Cc1ccccc1)C(=O)N1CCC[C@H]1C(=O)N[C@@H](CO)C(=O)O [SEQ ID NO: 1, Phe-Leu-Pro-Ser] (H-FLPS-OH; N-terminus and C-terminus assumed)
  effect on flowering: induces early flowering and abundance of flowers and pods
